Test results reported in ChEMBL document CHEMBL2203216, “Fluoride enhances the activity of fungicides that destabilize cell membranes” (2012).
Converted amounts (≈) assume the structure as drawn.

Tests used:
Candida albicans [1] = experiment: Antifungal activity against Candida albicans SC5314 in presence of 30 mM sodium fluoride after 48 hrs; type: functional; details: SC5314, 48 h
Candida albicans [2] = experiment: Antifungal activity against Candida albicans SC5314 after 48 hrs; type: functional; details: SC5314, 48 h

C[C@@H]1[C@H](O)[C@@H](C)/C=C/C=C/C=C/C=C/C=C/C=C/C=C/[C@H](O[C@@H]2O[C@H](C)[C@@H](O)[C@H](N)[C@@H]2O)C[C@@H]2O[C@](O)(C[C@@H](O)C[C@@H](O)[C@H](O)CC[C@@H](O)C[C@@H](O)CC(=O)O[C@H]1C)C[C@H](O)[C@H]2C(=O)O [AMPHOTERICIN B]
MIC (Candida albicans [1]): 0.05 µM
MIC (Candida albicans [2]): 0.1 µM (≈ 0.0924 µg/mL)
